This is one part of the list. Further columns of the screen follow, without active or inactive calls. Most of these compounds were active or inconclusive in the main read-out, so they are no random draw. Words in brackets tell the shape of the fitted curve; partial curves, single points and poor fits give uncertain potencies.
Experiment: qHTS Assay to Find Inhibitors of Chronic Active B-Cell Receptor Signaling
Details: ABC-DLBCL IkBa-CBG/CBR reporter, luminescence ratio (green luciferase fused to IkBa over red control in TMD8 lymphoma cells), 4 h
Summary of the method: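 Cell line TMD8 (human ABC DLBCL), stably expressing tet-inducible CBG68-IkBa fusion and CBR; IMDM/0.5% FBS; cpd up to 46 uM; dox induction, 4 h, 37C/5% CO2; dual luminescence; green/red ratio; MG132 control.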

[1] = measured here: CBR red luminescence, cell number
[2] = measured here: IkBa-CBG green luminescence

Row | SMILES | AC50 [1] | AC50 [2]
1 | Cc1cc2sc(NC(=O)c3ccco3)nc2cc1Cl | 0.794 µM [falling, full curve, poor fit] | 
2 | COC(=O)c1sccc1NC(=O)Cn1nnc(-c2ccccc2C)n1 | 3.16 µM [falling, full curve, poor fit] | 
3 | CCn1nc(C)c(CNC(=O)c2cc(COc3cncc(Cl)c3)on2)c1C | 35.5 µM [rising, single point] | 
4 | CCCCC[C@H](O)/C=C/[C@@H]1[C@@H](C/C=C\CCCC(=O)O)[C@@H](O)C[C@H]1O | 1.03 µM [rising, full curve] | 3.66 µM [falling, full curve]
5 | Cn1cccc1-c1cc(C(=O)N/N=C/c2ccc(F)cc2)[nH]n1 | 6.31 µM [falling, full curve, poor fit] | 
6 | CC(C)OCCCNC(=O)c1cccc(NC(=O)c2ccccc2)c1 | 0.651 µM [rising, partial curve, poor fit] | 
7 | Cc1ccccc1OCC(=O)OCC(=O)N1CCCc2ccccc21 | 1.46 µM [rising, full curve, poor fit] | 
8 | O=C(Nc1ccc2[nH]c3c(c2c1)CCCC3)c1ccco1 | 7.31 µM [rising, single point] | 
9 | C=CCNC(=O)c1ccc(OC2CCN(S(=O)(=O)N(C)C)CC2)cc1 | 35.5 µM [rising, single point] | 
10 | Cc1ccc(C(=O)O/N=C(\N)c2ccc(Br)cc2)cc1 | 6.51 µM [falling, full curve, poor fit] | 
11 | Cc1ccc(-c2nnc(SCC(=O)NC3CCCc4ccccc43)n2N)cc1 (stereo not given) | 29.1 µM [falling, single point] | 
12 | COc1ccc(-c2nc3sc(CCNC(=O)C(=O)Nc4ccc(OC)c(OC)c4)c(C)n3n2)cc1 | 12.6 µM [rising, single point] | 
13 | O=C(Cc1ccccc1)NCC(=O)N1CCCCC1 | 28.2 µM [falling, partial curve, poor fit] | 
14 | COc1cccc(C(=O)NNC(=O)C(=O)Nc2ccc(C)cc2)c1 | 11.2 µM [falling, partial curve, poor fit] | 
15 | [O-]/C(=C(\C(=S)Nc1ccc(Cl)cc1)[n+]1ccccc1)c1ccc(OC(F)F)cc1 | 7.94 µM [falling, partial curve, poor fit] | 
16 | Cc1ccc([C@H]2C(C(=O)O)=CC[C@@H](c3ccc(Cl)c(Cl)c3)N2S(=O)(=O)c2ccc(C)cc2)cc1 | 20.6 µM [falling, single point] | 
17 | COCCNC(=S)N(CCc1c(C)[nH]c2ccc(Cl)cc12)Cc1cccnc1 | 35.5 µM [falling, single point] | 
18 | COCCn1nnnc1SCC(=O)c1ccccc1 | 0.092 µM [rising, full curve, poor fit] | 
19 | Cc1cc(/C=C2\SC(=Nc3ccc(F)cc3)NC2=O)c(C)n1-c1ccc(S(N)(=O)=O)cc1 | 5.17 µM [falling, full curve] | 
20 | CC(C)=NNc1nc(-c2ccc([N+](=O)[O-])cc2)cs1 | 1.26 µM [rising, full curve, poor fit] | 
21 | COc1cc2c(C#N)c(N3CCCC3)nc(N)c2c(N)n1 | 0.178 µM [falling, full curve, poor fit] | 

Row | SMILES | AC50 [1] | AC50 [2]
22 | CC1=NN(C(N)=S)C(=O)C1N=Nc1cccc(Cl)c1 (stereo not given) |  | 2.82 µM [falling, single point]
23 | COc1ccc(/C=N/NC(=S)Nc2ccccc2)cc1COc1ccccc1F | 20.6 µM [rising, partial curve] | 
24 | CCOC(=O)c1c(CC(C)C)csc1NC(=O)CCl | 20.6 µM [falling, single point] | 
25 | Cc1ccc(OCc2nnc(SC(C)C(=O)O)n2Cc2ccccc2)cc1 (stereo not given) | 0.112 µM [falling, full curve, poor fit] | 
26 | CN(C)CCCN(C(=O)c1ccc2c(c1)CCCC2)c1nc2ccc(Cl)cc2s1 | 13 µM [falling, partial curve] | 
27 | COc1ccc(Nc2nc(-c3ccc(OC)cc3)cs2)cc1 | 0.562 µM [rising, full curve, poor fit] | 
28 | COc1cc(C(=O)N/N=C/c2sccc2C)cc(OC)c1OC | 3.98 µM [rising, full curve, poor fit] | 7.08 µM [falling, partial curve]
29 | CCCCN(C(=O)c1ccc(N2C(=O)c3ccccc3C2=O)cc1)c1c(N)n(CC(C)C)c(=O)[nH]c1=O | 3.26 µM [rising, single point] | 
30 | NC(=O)CC(NC(=O)Cc1ccc(Cl)cc1)c1ccc(NC2CCN(Cc3ccccc3)CC2)c([N+](=O)[O-])c1 (stereo not given) | 10 µM [falling, partial curve, poor fit] | 
31 | Cc1ccn(CC(=O)N2CCCC(C(=O)c3cccc4ccccc34)C2)n1 (stereo not given) | 14.1 µM [rising, single point] | 
32 | C/C(CCc1ccccc1)=N\NC(=O)c1ccccc1 | 11.6 µM [falling, partial curve] | 
33 | O=C1C2C3CC(C2C(=O)N1c1cccc(Cl)c1)[C@H](O)C3O (stereo not given in full) | 11.2 µM [rising, partial curve, poor fit] | 
34 | O=C(CCCCl)NC(=S)Nc1ccc(CN2CCOCC2)cc1 | 7.08 µM [falling, partial curve] | 
35 | CCc1c(C)nc2ncnn2c1N1CCCC(C(=O)Nc2cc(F)ccc2C)C1 (stereo not given) | 4.61 µM [falling, partial curve, poor fit] | 
36 | CCC1CCc2c(sc(NC(=O)c3ccco3)c2C(N)=O)C1 (stereo not given) |  | 9.2 µM [rising, partial curve, poor fit]
37 | O=C(O)C1CCN(C(=O)CSc2nc3ccccc3s2)CC1 | 2.82 µM [falling, full curve] | 
38 | CC(=O)c1ccc(S(=O)(=O)NC(=O)NC2CCCCC2)cc1 | 32.6 µM [falling, single point] | 
39 | CC(=O)c1ccccc1Oc1ncnc(N)c1[N+](=O)[O-] | 12.6 µM [rising, single point] | 
40 | CCCc1cc(=O)n2[nH]c(NCc3cccs3)nc2n1 | 16.4 µM [falling, partial curve, poor fit] | 
41 | O=C(N/N=C/c1ccc(F)cc1)c1ccc(OCc2ccccc2)cc1 | 12.6 µM [rising, single point] | 
42 | CCc1ccccc1NC(=O)CCS(=O)(=O)c1ccc(OC)cc1 | 0.708 µM [rising, full curve, poor fit] | 

Row | SMILES | AC50 [1] | AC50 [2]
43 | O=C(Cc1ccc(Cl)cc1)Nc1ccc(SC(F)F)cc1 | 0.92 µM [rising, full curve, poor fit] | 
44 | CCOC(=O)c1[nH]c(C)c(C(=O)N2CCN(c3cccc(Cl)c3)CC2)c1C | 4.61 µM [falling, single point] | 
45 | Cc1cc(NC(=O)c2cc(-c3ccccc3Cl)nc3ccccc23)no1 | 10 µM [falling, partial curve, poor fit] | 
46 | CC(C)Cn1c(N)c(C(=O)COC(=O)c2cccc(Cl)c2)c(=O)n(C)c1=O | 3.55 µM [rising, partial curve, poor fit] | 
47 | CC1=NN(c2ccccc2)C(=O)C1N=Nc1ccc(S(N)(=O)=O)cc1 (stereo not given) | 10 µM [falling, partial curve, poor fit] | 
48 | COc1ccccc1/C=C/C(=O)OCC(=O)Nc1ccc2c(c1)OCO2 | 0.146 µM [falling, partial curve, poor fit] | 
49 | O=c1cc(N=Nc2ccc(Cl)cc2)[nH]c(=O)[nH]1 | 2.24 µM [falling, full curve, poor fit] | 3.16 µM [rising, full curve, poor fit]
50 | O=C(N/N=C/c1c[nH]c2ccccc12)c1ccn(Cc2ccc(Cl)cc2)n1 | 11.2 µM [falling, partial curve] | 
51 | CC(C)Sc1ccc(C(=O)Nc2ccc(F)cc2F)cn1 | 5.01 µM [falling, partial curve, poor fit] | 
52 | CC(C)(C)OC(=O)N1CCN(C(=O)Cn2cc(CCO)nn2)CC1 | 35.5 µM [rising, partial curve, poor fit] | 
53 | Cc1ccc(-c2cnc(-c3ccncc3)o2)cc1 | 2.59 µM [rising, full curve, poor fit] | 
54 | O=C(Nc1cccc(S(=O)(=O)C(F)F)c1)c1ccc(Cl)c(S(=O)(=O)N2CCOCC2)c1 | 29.1 µM [falling, single point] | 
55 | O=C(Nc1ccccc1)c1ccc2c(c1)OCCCO2 | 3.98 µM [falling, full curve] | 
56 | Cc1cc(C)cc(N(C(=O)c2csnn2)C(C(=O)NC2CCCCC2)c2cccnc2)c1 (stereo not given) | 6.31 µM [rising, single point] | 
57 | O=C(NN=C1CCCCCCCCCCC1)c1ccccc1F | 16.4 µM [falling, partial curve] | 
58 | O=C(Cc1ccccc1)NNC(=O)Nc1ccc(Cl)c(Cl)c1 | 20.6 µM [falling, single point] | 
59 | C=CCC[C@@H](Cc1ccc(F)cc1)C(=O)OC[C@@H](Cc1ccccc1)NC(=O)[C@@H](CC=C)CC(=O)N[C@@H](CO)Cc1ccccc1 | 0.103 µM [rising, full curve, poor fit] | 
60 | CN(CCO)CC(O)Cn1cnc2c1c(=O)n(C)c(=O)n2C (stereo not given) (tested in a mixture with another compound) | 29.1 µM [rising, single point] | 
61 | CNC(=S)N1CCN(c2nc3ccccc3s2)CC1 | 31.6 µM [falling, single point] | 
62 | CSC1=NCCN1S(=O)(=O)c1ccc(NC(C)=O)cc1 | 6.31 µM [rising, single point] | 

4 entries picked at random from those above:
Row | SMILES | AC50 [1] | AC50 [2]
58 | O=C(Cc1ccccc1)NNC(=O)Nc1ccc(Cl)c(Cl)c1 | 20.6 µM [falling, single point] | 
62 | CSC1=NCCN1S(=O)(=O)c1ccc(NC(C)=O)cc1 | 6.31 µM [rising, single point] | 
49 | O=c1cc(N=Nc2ccc(Cl)cc2)[nH]c(=O)[nH]1 | 2.24 µM [falling, full curve, poor fit] | 3.16 µM [rising, full curve, poor fit]
52 | CC(C)(C)OC(=O)N1CCN(C(=O)Cn2cc(CCO)nn2)CC1 | 35.5 µM [rising, partial curve, poor fit] | 
